Measured values as given in patent US20200085917A1 (UNIVERSITY OF PITTSBURGH OF THE COMMONWEALTH SYSTEM OF …, published 2020).
Blank lines part the entries; values can stand above or below the binder they belong to.

Molecular target: T1, GST alone (UniProt P08515 1-218 = GST)
T1 construct: Negative control of the pull-downs; also called control GST
Experiment: GST pull-down, LC-MS/MS
Method: Extracts were spun at 14,000 r.p.m. at 4° C., and clarified supernatants were incubated with glutathione 4B Sepharose beads (GE Healthcare) at 4° C. overnight. The glutathione beads were then washed extensively with ice-cold TNE buffer, and bound proteins were subjected to SDS-PAGE followed by immunoblotting analysis. For the samples subjected to mass spectrometry, glutathione bead-bound proteins from equal amounts (600 μg) of mitochondria were further washed with high stringency RIPA buffer following TNE buffer wash to decrease nonspecific interaction. Proteins were then eluted from the glutathione beads in SDS sample buffer, separated by SDS-PAGE and stained with Coomassie. Proteins in the gel were digested with trypsin and analyzed by mass spectrometry (LC-MS/MS) at the Taplin Biological Mass Spectrometry Facility (Harvard Medical School, Boston, Mass.).

binding result: no binding
B1: Tim17a (endogenous, mouse forebrain mitochondria) (other, UniProt Q9Z0V8 1-171, looked up)
chain: MEEYAREPCPWRIVDDCGGAFTMGTIGGGIFQAFKGFRNSPVGINHRLRGSLTAIKTRAPQLGGSFAVWGGLFSTIDCSMVQIRGKEDPWNSITSGALTGAILAARNGPVAMVGSAAMGGILLALIEGAGILLTRFASAQFPNGPQFTEDHSQLPSSQLPSSPFGDYRQYQ
notes: also called Timm17a

binding result: no binding
B2: Timm17b_IPI:IPI00129504.1 (other, mouse, UniProt Q9Z0V7 1-172, looked up)
chain: MEEYAREPCPWRIVDDCGGAFTMGVIGGGVFQAIKGFRNAPVGIRHRFRGSVNAVRIRAPQIGGSFAVWGGLFSTIDCGLVRLRGKEDPWNSISSGALTGAVLAARSGPLAMVGSAMMGGILLALIEGVGILLTRYTAQQFRNAPPFLEDPSQLTPKEGSPAPGYPNYQQYH
notes: Endogenous protein

binding result: no binding
B3: Dnajc19_IPI:IPI00111111.5 (other, mouse, UniProt Q9CQV7 2-116, looked up)
chain: ASTVVAVGLTIAAAGFAGRYVLQAMKHVEPQVKQVFQSLPKSAFGGGYYRGGFEPKMTKREAALILGVSPTANKGKIRDAHRRIMLLNHPDKGGSPYIAAKINEAKDLLEGQAKK
